Source: article PMC4598080
No constants are given. Whether binding was seen depends on the method and setting. Binding seen in cells or lysates may run through a third protein. These calls come from enrichment with a bait or labelling near it, and not all partners need be listed.

Amino acid sequences for entries named in this document (tags omitted). A change or cut given only in a name is not applied to a line headed by its entry. Chains listed by the source or under a name are the forms on record and can include a tag or linker. Residues count along the entry.
UniProt P10664: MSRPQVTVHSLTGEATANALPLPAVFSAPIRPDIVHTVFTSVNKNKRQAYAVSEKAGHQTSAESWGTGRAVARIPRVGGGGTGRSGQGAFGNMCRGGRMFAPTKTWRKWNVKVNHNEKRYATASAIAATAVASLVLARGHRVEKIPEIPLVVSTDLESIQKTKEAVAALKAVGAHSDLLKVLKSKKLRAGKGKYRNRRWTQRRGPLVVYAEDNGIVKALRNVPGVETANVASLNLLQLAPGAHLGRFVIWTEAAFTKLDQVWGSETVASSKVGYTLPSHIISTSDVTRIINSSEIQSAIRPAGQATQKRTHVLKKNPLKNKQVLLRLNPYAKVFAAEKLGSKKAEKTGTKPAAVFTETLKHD
N-terminally TAP-tagged Rpl4a.N291: residues 1-291 of P10664
N-terminally TAP-tagged Rpl4a.N264: residues 1-264 of P10664

Tests used:
[1] = biological target: N-terminally TAP-tagged full-length Rpl4a (S. cerevisiae) (UniProt P10664); assay: affinity purification with mass spectrometry; tandem-affinity purification of NTAP-Rpl4a, sole Rpl4 source in the RPL4 shuffle strain YBP15, from whole cell lysates; 50 mM Tris-HCl pH 7.5, 100 mM NaCl, 1.5 mM MgCl2, 5% glycerol, 0.1% NP-40; EGTA eluates, Coomassie, mass spectrometry
[2] = biological target: N-terminally TAP-tagged Rpl4a.N264 (S. cerevisiae) (UniProt P10664); assay: affinity purification with mass spectrometry; tandem-affinity purification of NTAP-Rpl4a.N264 and NTAP-Rpl4a.N291 from whole cell lysates of wild-type yeast; 50 mM Tris-HCl pH 7.5, 100 mM NaCl, 1.5 mM MgCl2, 5% glycerol, 0.1% NP-40; EGTA eluates, SDS-PAGE, Coomassie, bands identified by mass spectrometry
[3] = biological target: N-terminally TAP-tagged Rpl4a.N291 (S. cerevisiae) (UniProt P10664); assay: as above

Measured: binding

B1: Acl4 (Assembly Chaperone of RpL4) (protein, UniProt Q03771 1-387)
chain: MSELEATIRQAKEALAENNAKKALKILKPFKSSLKKENANNVILNEVFADAYLDNGQVEKAYPILARACELDPEGQVGGPDKFFTMGQIMGGQDGVSIITRGIMNISNTGGEMLTNVQVEKIVGGLLSVIEIWMTDLCMEPNAEEQCEELIQKAMELTEGKSPETWSTLGSIKISQQKFGEAYEAFSQAWNFFELKKQEIGSGINENGDTTQKAGLQSEYVDLLQPLLSLTKMCLEVGAYEVALKVIAAVRDIDEDNIEGYYLEGFTYYLMSKLEIFKLNNPEVSLRPENIYEFNQLIQEVPLDLSHEPISQLIYDSRLALSFALQAGVNADSKDEIVQELLGGANALLQEIGGPLDPSELTQIKKGDLVNENEDLEELDIEEEYSD
binds: all assays above
